From the supplement of paper PMC8728848
The list shows a part of the results.

Legend:
Assay in all cases: glycan array binding signal (z-score within array); higher = stronger binding
Details in all cases: glycan notation: IUPAC condensed, linker removed
[1] = target: GlcNAc(b1-2)Gal(b1-3)GalNAc
Method in brief: (§1)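 Glycan array data were curated from 3228 arrays in the Consortium for Functional Glycomics database and kept only where the protein sequence was available. Glycan names were converted to IUPAC-condensed notation, and columns mapping to the same glycan were averaged. The binding signal is a within-array Z-score, averaged across arrays of the same protein sequence at different concentrations or buffers and across linkers. Negative Z-scores can be read as non-binding.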

[2] = target: GlcNAc(b1-2)Man(a1-3)[GlcNAc(b1-2)Man(a1-6)]Man(b1-4)GlcNAc(b1-4)GlcNAc
Method in brief: as §1

[3] = target: GlcNAc(b1-2)Man(a1-3)[GlcNAc(b1-2)Man(a1-6)]Man(b1-4)GlcNAc(b1-4)[Fuc(a1-6)]GlcNAc
Method in brief: as §1

[4] = target: GlcNAc(b1-2)Man(a1-3)[GlcNAc(b1-4)][GlcNAc(b1-2)Man(a1-6)]Man(b1-4)GlcNAc(b1-4)GlcNAc
Method in brief: as §1

[5] = target: GlcNAc(b1-2)Man(a1-3)[GlcNAc(b1-4)][GlcNAc(b1-2)Man(a1-6)]Man(b1-4)GlcNAc(b1-4)[Fuc(a1-6)]GlcNAc
Method in brief: as §1

[6] = target: GlcNAc(b1-2)[GlcNAc(b1-4)]Man(a1-3)[GlcNAc(b1-2)Man(a1-6)]Man(b1-4)GlcNAc(b1-4)GlcNAc
Method in brief: as §1

[7] = target: GlcNAc(b1-2)[GlcNAc(b1-4)]Man(a1-3)[GlcNAc(b1-4)][GlcNAc(b1-2)Man(a1-6)]Man(b1-4)GlcNAc(b1-4)GlcNAc
Method in brief: as §1

[8] = target: GlcNAc(b1-2)[GlcNAc(b1-4)]Man(a1-3)[GlcNAc(b1-4)][GlcNAc(b1-2)[GlcNAc(b1-6)]Man(a1-6)]Man(b1-4)GlcNAc(b1-4)GlcNAc
Method in brief: as §1

[9] = target: GlcNAc(b1-2)[GlcNAc(b1-4)]Man(a1-3)[GlcNAc(b1-4)][GlcNAc(b1-2)[GlcNAc(b1-6)]Man(a1-6)]Man(b1-4)GlcNAc(b1-4)[Fuc(a1-6)]GlcNAc
Method in brief: as §1

[10] = target: GlcNAc(b1-2)[GlcNAc(b1-6)]Man(a1-6)[GlcNAc(b1-2)Man(a1-3)]Man(b1-4)GlcNAc(b1-4)GlcNAc
Method in brief: as §1

[11] = target: GlcNAc(b1-2)[GlcNAc(b1-6)]Man(a1-6)[GlcNAc(b1-2)Man(a1-3)]Man(b1-4)GlcNAc(b1-4)[Fuc(a1-6)]GlcNAc
Method in brief: as §1

[12] = target: GlcNAc(b1-2)[GlcNAc(b1-6)]Man(a1-6)[GlcNAc(b1-4)][GlcNAc(b1-2)Man(a1-3)]Man(b1-4)GlcNAc(b1-4)GlcNAc
Method in brief: as §1

GlcNAc(b1-3)Fuc = target: GlcNAc(b1-3)Fuc
Method in brief: as §1

GlcNAc(b1-3)Gal = target: GlcNAc(b1-3)Gal
Method in brief: as §1

[13] = target: GlcNAc(b1-3)Gal(b1-3)GalNAc
Method in brief: as §1

GlcNAc(b1-3)Gal(b1-4)Glc = target: GlcNAc(b1-3)Gal(b1-4)Glc
Method in brief: as §1

[14] = target: GlcNAc(b1-3)Gal(b1-4)GlcNAc
Method in brief: as §1

[15] = target: GlcNAc(b1-3)Gal(b1-4)GlcNAc(b1-2)Man(a1-3)[GlcNAc(b1-3)Gal(b1-4)GlcNAc(b1-2)Man(a1-6)]Man(b1-4)GlcNAc(b1-4)GlcNAc
Method in brief: as §1

[16] = target: GlcNAc(b1-3)Gal(b1-4)GlcNAc(b1-2)Man(a1-3)[GlcNAc(b1-3)Gal(b1-4)GlcNAc(b1-2)Man(a1-6)]Man(b1-4)GlcNAc(b1-4)[Fuc(a1-6)]GlcNAc
Method in brief: as §1

[17] = target: GlcNAc(b1-3)Gal(b1-4)GlcNAc(b1-2)[GlcNAc(b1-3)Gal(b1-4)GlcNAc(b1-6)]Man(a1-6)[GlcNAc(b1-3)Gal(b1-4)GlcNAc(b1-2)Man(a1-3)]Man(b1-4)GlcNAc(b1-4)GlcNAc
Method in brief: as §1

[18] = target: GlcNAc(b1-3)Gal(b1-4)GlcNAc(b1-3)Gal(b1-4)GlcNAc
Method in brief: as §1

[19] = target: GlcNAc(b1-3)Gal(b1-4)GlcNAc(b1-3)Gal(b1-4)GlcNAc(b1-2)Man(a1-3)[GlcNAc(b1-3)Gal(b1-4)GlcNAc(b1-3)Gal(b1-4)GlcNAc(b1-2)Man(a1-6)]Man(b1-4)GlcNAc(b1-4)GlcNAc
Method in brief: as §1

[20] = target: GlcNAc(b1-3)Gal(b1-4)GlcNAc(b1-3)Gal(b1-4)GlcNAc(b1-2)Man(a1-3)[GlcNAc(b1-3)Gal(b1-4)GlcNAc(b1-3)Gal(b1-4)GlcNAc(b1-2)Man(a1-6)]Man(b1-4)GlcNAc(b1-4)[Fuc(a1-6)]GlcNAc
Method in brief: as §1

[21] = target: GlcNAc(b1-3)Gal(b1-4)GlcNAc(b1-3)Gal(b1-4)GlcNAc(b1-2)[GlcNAc(b1-3)Gal(b1-4)GlcNAc(b1-3)Gal(b1-4)GlcNAc(b1-6)]Man(a1-6)[GlcNAc(b1-3)Gal(b1-4)GlcNAc(b1-3)Gal(b1-4)GlcNAc(b1-2)Man(a1-3)]Man(b1-4)GlcNAc(b1-4)[Fuc(a1-6)]GlcNAc
Method in brief: as §1

[22] = target: GlcNAc(b1-3)Gal(b1-4)GlcNAc(b1-3)Gal(b1-4)GlcNAc(b1-3)Gal(b1-4)GlcNAc(b1-2)Man(a1-3)[GlcNAc(b1-3)Gal(b1-4)GlcNAc(b1-3)Gal(b1-4)GlcNAc(b1-3)Gal(b1-4)GlcNAc(b1-2)Man(a1-6)]Man(b1-4)GlcNAc(b1-4)GlcNAc
Method in brief: as §1

[23] = target: GlcNAc(b1-3)Gal(b1-4)GlcNAc(b1-3)Gal(b1-4)GlcNAc(b1-3)Gal(b1-4)GlcNAc(b1-2)Man(a1-3)[GlcNAc(b1-3)Gal(b1-4)GlcNAc(b1-3)Gal(b1-4)GlcNAc(b1-3)Gal(b1-4)GlcNAc(b1-2)Man(a1-6)]Man(b1-4)GlcNAc(b1-4)[Fuc(a1-6)]GlcNAc
Method in brief: as §1

[24] = target: GlcNAc(b1-3)Gal(b1-4)GlcNAc(b1-3)Gal(b1-4)GlcNAc(b1-3)Gal(b1-4)GlcNAc(b1-2)[GlcNAc(b1-3)Gal(b1-4)GlcNAc(b1-3)Gal(b1-4)GlcNAc(b1-3)Gal(b1-4)GlcNAc(b1-6)]Man(a1-6)[GlcNAc(b1-3)Gal(b1-4)GlcNAc(b1-3)Gal(b1-4)GlcNAc(b1-3)Gal(b1-4)GlcNAc(b1-2)Man(a1-3)]Man(b1-4)GlcNAc(b1-4)[Fuc(a1-6)]GlcNAc
Method in brief: as §1

[25] = target: GlcNAc(b1-3)Gal(b1-4)GlcNAc(b1-3)Gal(b1-4)GlcNAc(b1-3)Gal(b1-4)GlcNAc(b1-3)Gal(b1-4)GlcNAc(b1-2)Man(a1-3)[GlcNAc(b1-3)Gal(b1-4)GlcNAc(b1-3)Gal(b1-4)GlcNAc(b1-3)Gal(b1-4)GlcNAc(b1-3)Gal(b1-4)GlcNAc(b1-2)Man(a1-6)]Man(b1-4)GlcNAc(b1-4)GlcNAc
Method in brief: as §1

[26] = target: GlcNAc(b1-3)Gal(b1-4)GlcNAc(b1-3)Gal(b1-4)GlcNAc(b1-3)Gal(b1-4)GlcNAc(b1-3)Gal(b1-4)GlcNAc(b1-2)Man(a1-3)[GlcNAc(b1-3)Gal(b1-4)GlcNAc(b1-3)Gal(b1-4)GlcNAc(b1-3)Gal(b1-4)GlcNAc(b1-3)Gal(b1-4)GlcNAc(b1-2)Man(a1-6)]Man(b1-4)GlcNAc(b1-4)[Fuc(a1-6)]GlcNAc
Method in brief: as §1

[27] = target: GlcNAc(b1-3)Gal(b1-4)GlcNAc(b1-3)Gal(b1-4)GlcNAc(b1-3)Gal(b1-4)GlcNAc(b1-3)Gal(b1-4)GlcNAc(b1-2)[GlcNAc(b1-3)Gal(b1-4)GlcNAc(b1-3)Gal(b1-4)GlcNAc(b1-3)Gal(b1-4)GlcNAc(b1-3)Gal(b1-4)GlcNAc(b1-6)]Man(a1-6)[GlcNAc(b1-3)Gal(b1-4)GlcNAc(b1-3)Gal(b1-4)GlcNAc(b1-3)Gal(b1-4)GlcNAc(b1-3)Gal(b1-4)GlcNAc(b1-2)Man(a1-3)]Man(b1-4)GlcNAc(b1-4)[Fuc(a1-6)]GlcNAc
Method in brief: as §1

[28] = target: GlcNAc(b1-3)Gal(b1-4)GlcNAc(b1-3)Gal(b1-4)GlcNAc(b1-3)GalNAc
Method in brief: as §1

[29] = target: GlcNAc(b1-3)Gal(b1-4)GlcNAc(b1-3)GalNAc
Method in brief: as §1

[30] = target: GlcNAc(b1-3)Gal(b1-4)GlcNAc(b1-3)[GlcNAc(b1-3)Gal(b1-4)GlcNAc(b1-3)]GalNAc
Method in brief: as §1

[31] = target: GlcNAc(b1-3)Gal(b1-4)GlcNAc(b1-6)[Gal(b1-3)]GalNAc
Method in brief: as §1

[32] = target: GlcNAc(b1-3)Gal(b1-4)GlcNAc(b1-6)[GlcNAc(b1-3)Gal(b1-3)]GalNAc
Method in brief: as §1

[33] = target: GlcNAc(b1-3)Gal(b1-4)GlcNAc(b1-6)[GlcNAc(b1-3)]Gal(b1-4)GlcNAc
Method in brief: as §1

GlcNAc(b1-3)GalNAc = target: GlcNAc(b1-3)GalNAc
Method in brief: as §1

B1: Aap brpt (Staphylococcus epidermidis) (protein)
chain: VDGDPITSTEEIPFDKKREFDPNLAPGTEKVVQKGEPGTKTITTPTTKNPLTGEKVGEGEPTEKITKQPVDEIVHYGGEEIKTGHKDEFDPNAPKGSQTTQPGKPGVKNPDTGEVVTPPVDDVTKYGPVDGDPITSTEEIPFDKKREFDPNLAPGTEKVVQKGEPGTKTITTPTTKNPLTGEKVGEGEPTEKITKQPVDEIVHYGGEEIKPGHKDEFDPNAPKGSQEDVPGKPGVKNPDTGEVVTPPVDDVTKYGPVDGDSITSTEEIPFDKKREFDPNLAPGTEKVVQKGEPGTKTITTPTTKNPLTGEKVGEGEPTEKITKQPVDEIVHYGGEQIPQGHKDEFDPNAPVDSKTEVPGKPGVKNPDTGEVVTPPVDDVTKYGPVDGDSITSTEEIPFDKKREFDPNLAPGTEKVVQKGEPGTKTITTPTTKNPLTGEKVGEGKSTEKVTKQPVDEIVEYGPTK
- glycan array binding signal (z-score) [1]: -1.55
- glycan array binding signal (z-score) [2]: 1.01
- glycan array binding signal (z-score) [3]: 0.002
- glycan array binding signal (z-score) [4]: -0.949
- glycan array binding signal (z-score) [5]: 1.38
- glycan array binding signal (z-score) [6]: 1.57
- glycan array binding signal (z-score) [7]: -0.988
- glycan array binding signal (z-score) [8]: -1.08
- glycan array binding signal (z-score) [9]: 0.314
- glycan array binding signal (z-score) [10]: 1.43
- glycan array binding signal (z-score) [11]: -0.222
- glycan array binding signal (z-score) [12]: -0.067
- glycan array binding signal (z-score) (GlcNAc(b1-3)Fuc): 0.901
- glycan array binding signal (z-score) (GlcNAc(b1-3)Gal): -1.21
- glycan array binding signal (z-score) [13]: 0.291
- glycan array binding signal (z-score) (GlcNAc(b1-3)Gal(b1-4)Glc): -0.381
- glycan array binding signal (z-score) [14]: -0.004
- glycan array binding signal (z-score) [15]: 0.533
- glycan array binding signal (z-score) [16]: -0.784
- glycan array binding signal (z-score) [17]: -0.649
- glycan array binding signal (z-score) [18]: -0.363
- glycan array binding signal (z-score) [19]: 0.198
- glycan array binding signal (z-score) [20]: 2.65
- glycan array binding signal (z-score) [21]: 3.02
- glycan array binding signal (z-score) [22]: 1.17
- glycan array binding signal (z-score) [23]: 1.61
- glycan array binding signal (z-score) [24]: 0.949
- glycan array binding signal (z-score) [25]: -0.289
- glycan array binding signal (z-score) [26]: 0.525
- glycan array binding signal (z-score) [27]: 1.02
- glycan array binding signal (z-score) [28]: 0.235
- glycan array binding signal (z-score) [29]: 0.112
- glycan array binding signal (z-score) [30]: 0.48
- glycan array binding signal (z-score) [31]: -1.92
- glycan array binding signal (z-score) [32]: -0.394
- glycan array binding signal (z-score) [33]: 0.488
- glycan array binding signal (z-score) (GlcNAc(b1-3)GalNAc): -0.448
